# According to the supplement of paper PMC10849652:
# Amino acid sequences for entries named in this document (tags omitted). A change or cut given only in a name is not applied to a line headed by its entry.
# UniProt Q96CS2: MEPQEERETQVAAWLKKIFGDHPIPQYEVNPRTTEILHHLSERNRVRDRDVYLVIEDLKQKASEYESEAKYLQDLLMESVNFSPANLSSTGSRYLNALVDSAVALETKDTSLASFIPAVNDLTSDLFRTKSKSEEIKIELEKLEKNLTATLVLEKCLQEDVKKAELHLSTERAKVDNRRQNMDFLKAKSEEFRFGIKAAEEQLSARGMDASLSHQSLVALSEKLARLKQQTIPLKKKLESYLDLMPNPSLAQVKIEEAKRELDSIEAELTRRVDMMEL
# UniProt P15170, whole entry, looked up: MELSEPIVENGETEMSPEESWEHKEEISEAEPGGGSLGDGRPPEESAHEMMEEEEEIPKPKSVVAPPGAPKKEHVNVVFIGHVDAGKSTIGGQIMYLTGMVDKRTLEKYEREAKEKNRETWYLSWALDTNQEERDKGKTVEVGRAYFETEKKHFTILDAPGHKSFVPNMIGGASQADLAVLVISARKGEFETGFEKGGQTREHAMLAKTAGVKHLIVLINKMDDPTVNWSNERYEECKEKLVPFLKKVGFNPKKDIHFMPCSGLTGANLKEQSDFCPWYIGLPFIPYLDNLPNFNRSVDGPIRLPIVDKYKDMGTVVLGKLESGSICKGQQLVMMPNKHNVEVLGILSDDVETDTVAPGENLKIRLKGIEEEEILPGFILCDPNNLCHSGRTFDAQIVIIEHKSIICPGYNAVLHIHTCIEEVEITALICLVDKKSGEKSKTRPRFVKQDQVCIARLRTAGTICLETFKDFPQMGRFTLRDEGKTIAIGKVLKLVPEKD
# UniProt Q8WUI4: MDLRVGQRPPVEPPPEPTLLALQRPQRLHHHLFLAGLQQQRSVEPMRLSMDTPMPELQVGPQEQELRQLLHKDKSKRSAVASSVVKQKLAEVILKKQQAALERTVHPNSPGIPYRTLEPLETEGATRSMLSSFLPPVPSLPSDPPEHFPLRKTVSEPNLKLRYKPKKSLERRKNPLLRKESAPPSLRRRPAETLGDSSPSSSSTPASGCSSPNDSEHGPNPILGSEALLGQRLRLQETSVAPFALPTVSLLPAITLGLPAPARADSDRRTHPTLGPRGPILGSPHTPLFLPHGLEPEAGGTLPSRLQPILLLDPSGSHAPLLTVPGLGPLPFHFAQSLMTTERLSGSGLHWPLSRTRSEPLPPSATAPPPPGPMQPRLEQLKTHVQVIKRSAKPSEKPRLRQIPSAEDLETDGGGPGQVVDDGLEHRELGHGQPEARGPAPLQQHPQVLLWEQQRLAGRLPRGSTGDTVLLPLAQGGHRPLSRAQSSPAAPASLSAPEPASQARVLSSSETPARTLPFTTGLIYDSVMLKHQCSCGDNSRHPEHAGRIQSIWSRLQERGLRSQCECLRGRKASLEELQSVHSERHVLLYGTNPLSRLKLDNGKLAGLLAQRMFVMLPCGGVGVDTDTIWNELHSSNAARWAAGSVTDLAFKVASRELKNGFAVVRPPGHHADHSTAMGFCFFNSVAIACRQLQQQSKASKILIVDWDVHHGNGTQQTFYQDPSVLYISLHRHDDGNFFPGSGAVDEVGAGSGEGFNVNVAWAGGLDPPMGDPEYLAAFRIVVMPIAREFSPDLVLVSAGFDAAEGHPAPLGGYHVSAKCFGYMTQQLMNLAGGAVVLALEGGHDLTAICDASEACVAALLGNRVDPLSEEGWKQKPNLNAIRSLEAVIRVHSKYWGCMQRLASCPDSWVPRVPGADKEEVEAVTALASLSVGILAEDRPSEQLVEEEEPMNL
# UniProt Q9Y5Q8: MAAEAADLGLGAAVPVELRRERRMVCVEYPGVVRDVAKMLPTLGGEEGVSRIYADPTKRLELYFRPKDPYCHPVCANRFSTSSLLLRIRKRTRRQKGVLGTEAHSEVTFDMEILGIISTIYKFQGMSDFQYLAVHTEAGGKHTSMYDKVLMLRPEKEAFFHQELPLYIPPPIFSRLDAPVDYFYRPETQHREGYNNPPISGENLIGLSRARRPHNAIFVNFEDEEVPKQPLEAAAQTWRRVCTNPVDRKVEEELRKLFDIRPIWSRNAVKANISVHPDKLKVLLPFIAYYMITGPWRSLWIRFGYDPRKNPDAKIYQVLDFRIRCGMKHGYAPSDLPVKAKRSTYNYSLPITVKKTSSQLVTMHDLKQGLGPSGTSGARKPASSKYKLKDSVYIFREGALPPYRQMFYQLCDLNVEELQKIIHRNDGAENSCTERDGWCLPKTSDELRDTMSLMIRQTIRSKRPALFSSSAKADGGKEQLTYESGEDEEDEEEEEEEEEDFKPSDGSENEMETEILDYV
# UniProt Q13547, whole entry, looked up: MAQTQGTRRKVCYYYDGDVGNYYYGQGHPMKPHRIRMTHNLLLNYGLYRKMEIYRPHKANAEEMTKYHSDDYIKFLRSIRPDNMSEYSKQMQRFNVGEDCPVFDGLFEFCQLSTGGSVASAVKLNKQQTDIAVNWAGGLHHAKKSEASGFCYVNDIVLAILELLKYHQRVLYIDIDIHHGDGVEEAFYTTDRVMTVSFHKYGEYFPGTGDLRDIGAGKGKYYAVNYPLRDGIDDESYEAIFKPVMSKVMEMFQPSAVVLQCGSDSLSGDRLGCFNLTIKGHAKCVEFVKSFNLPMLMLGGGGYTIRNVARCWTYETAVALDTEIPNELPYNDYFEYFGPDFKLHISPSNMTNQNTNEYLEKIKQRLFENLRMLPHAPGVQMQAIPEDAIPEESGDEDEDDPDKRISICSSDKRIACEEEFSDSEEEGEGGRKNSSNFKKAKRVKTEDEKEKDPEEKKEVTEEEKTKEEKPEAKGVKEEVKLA
# UniProt Q8TDG4: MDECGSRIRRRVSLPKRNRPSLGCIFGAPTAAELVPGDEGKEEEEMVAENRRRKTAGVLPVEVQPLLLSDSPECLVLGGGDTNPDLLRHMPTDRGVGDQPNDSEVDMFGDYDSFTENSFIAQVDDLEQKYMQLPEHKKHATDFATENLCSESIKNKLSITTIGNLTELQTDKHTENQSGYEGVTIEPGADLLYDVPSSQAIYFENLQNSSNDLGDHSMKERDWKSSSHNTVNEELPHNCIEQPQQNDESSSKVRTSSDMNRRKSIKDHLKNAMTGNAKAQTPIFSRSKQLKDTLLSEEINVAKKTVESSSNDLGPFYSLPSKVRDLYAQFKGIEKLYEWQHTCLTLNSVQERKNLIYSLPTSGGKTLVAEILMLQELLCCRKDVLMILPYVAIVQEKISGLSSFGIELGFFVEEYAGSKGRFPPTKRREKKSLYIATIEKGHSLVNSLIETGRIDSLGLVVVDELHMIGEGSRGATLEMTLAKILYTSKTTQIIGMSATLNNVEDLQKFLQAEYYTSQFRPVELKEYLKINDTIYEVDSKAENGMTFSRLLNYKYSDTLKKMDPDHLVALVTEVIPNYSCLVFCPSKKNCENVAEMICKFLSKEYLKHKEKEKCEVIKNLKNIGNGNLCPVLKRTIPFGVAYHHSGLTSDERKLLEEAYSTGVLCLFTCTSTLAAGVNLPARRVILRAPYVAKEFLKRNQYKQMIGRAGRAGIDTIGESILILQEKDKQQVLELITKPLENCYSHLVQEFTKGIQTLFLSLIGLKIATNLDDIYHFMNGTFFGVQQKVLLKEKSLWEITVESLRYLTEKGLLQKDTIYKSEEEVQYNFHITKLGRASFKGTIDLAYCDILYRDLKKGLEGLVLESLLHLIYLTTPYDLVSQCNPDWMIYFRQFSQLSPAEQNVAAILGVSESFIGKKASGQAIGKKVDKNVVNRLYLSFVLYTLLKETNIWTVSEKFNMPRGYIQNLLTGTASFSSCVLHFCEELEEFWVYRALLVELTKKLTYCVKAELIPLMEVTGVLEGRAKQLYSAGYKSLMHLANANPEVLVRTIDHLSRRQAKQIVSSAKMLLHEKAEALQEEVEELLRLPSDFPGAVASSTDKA
# UniProt Q9H583: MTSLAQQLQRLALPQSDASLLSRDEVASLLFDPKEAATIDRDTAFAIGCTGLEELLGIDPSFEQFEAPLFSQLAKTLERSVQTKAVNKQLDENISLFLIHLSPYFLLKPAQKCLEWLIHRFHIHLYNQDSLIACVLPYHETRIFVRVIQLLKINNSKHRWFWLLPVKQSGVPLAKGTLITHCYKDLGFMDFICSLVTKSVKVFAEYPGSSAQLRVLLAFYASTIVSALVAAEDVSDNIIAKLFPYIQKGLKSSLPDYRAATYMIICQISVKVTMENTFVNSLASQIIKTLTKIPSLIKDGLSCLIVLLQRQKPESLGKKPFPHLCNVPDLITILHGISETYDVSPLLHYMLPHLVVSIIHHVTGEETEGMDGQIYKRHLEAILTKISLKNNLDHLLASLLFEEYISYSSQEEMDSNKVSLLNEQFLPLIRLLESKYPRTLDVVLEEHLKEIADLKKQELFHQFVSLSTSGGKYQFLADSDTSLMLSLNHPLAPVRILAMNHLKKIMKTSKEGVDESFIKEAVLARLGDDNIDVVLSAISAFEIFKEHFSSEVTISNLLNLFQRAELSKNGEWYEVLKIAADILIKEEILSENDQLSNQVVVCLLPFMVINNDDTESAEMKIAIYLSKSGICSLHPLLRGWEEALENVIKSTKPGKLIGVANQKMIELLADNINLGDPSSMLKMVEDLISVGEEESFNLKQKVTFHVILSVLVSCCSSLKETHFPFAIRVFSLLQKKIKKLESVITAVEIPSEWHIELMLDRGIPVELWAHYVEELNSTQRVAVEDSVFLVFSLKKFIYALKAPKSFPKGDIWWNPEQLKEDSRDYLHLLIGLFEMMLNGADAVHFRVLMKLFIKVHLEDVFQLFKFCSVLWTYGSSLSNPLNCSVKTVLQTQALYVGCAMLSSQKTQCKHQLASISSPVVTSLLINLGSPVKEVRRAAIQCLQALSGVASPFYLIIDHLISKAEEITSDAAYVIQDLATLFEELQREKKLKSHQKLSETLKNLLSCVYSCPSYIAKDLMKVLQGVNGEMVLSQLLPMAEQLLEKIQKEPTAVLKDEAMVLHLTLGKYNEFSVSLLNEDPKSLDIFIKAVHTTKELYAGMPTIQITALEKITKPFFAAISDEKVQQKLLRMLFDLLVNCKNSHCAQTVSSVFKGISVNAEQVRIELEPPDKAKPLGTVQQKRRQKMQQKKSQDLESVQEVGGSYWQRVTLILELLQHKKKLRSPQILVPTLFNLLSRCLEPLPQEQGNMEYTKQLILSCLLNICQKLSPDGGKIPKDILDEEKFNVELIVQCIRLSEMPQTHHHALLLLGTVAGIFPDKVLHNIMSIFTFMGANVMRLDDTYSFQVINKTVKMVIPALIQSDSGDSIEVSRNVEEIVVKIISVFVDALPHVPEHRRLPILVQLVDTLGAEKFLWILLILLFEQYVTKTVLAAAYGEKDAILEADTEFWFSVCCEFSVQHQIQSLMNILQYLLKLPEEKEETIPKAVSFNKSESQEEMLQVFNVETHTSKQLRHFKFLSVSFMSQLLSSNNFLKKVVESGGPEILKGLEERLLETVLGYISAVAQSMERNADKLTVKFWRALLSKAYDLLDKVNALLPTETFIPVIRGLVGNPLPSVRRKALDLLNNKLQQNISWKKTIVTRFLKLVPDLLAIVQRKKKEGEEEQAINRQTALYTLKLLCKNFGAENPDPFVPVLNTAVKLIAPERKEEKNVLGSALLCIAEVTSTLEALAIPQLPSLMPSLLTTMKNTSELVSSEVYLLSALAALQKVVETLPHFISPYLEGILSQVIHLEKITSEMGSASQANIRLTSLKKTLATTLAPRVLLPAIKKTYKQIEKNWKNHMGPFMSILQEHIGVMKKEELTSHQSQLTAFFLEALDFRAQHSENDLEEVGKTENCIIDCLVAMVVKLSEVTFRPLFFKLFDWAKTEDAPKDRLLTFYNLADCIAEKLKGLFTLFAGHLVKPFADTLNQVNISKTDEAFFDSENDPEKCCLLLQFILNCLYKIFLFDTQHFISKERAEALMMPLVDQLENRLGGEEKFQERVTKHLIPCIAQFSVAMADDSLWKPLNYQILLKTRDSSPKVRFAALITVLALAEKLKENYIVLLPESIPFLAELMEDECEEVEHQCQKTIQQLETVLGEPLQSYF
# UniProt P06865: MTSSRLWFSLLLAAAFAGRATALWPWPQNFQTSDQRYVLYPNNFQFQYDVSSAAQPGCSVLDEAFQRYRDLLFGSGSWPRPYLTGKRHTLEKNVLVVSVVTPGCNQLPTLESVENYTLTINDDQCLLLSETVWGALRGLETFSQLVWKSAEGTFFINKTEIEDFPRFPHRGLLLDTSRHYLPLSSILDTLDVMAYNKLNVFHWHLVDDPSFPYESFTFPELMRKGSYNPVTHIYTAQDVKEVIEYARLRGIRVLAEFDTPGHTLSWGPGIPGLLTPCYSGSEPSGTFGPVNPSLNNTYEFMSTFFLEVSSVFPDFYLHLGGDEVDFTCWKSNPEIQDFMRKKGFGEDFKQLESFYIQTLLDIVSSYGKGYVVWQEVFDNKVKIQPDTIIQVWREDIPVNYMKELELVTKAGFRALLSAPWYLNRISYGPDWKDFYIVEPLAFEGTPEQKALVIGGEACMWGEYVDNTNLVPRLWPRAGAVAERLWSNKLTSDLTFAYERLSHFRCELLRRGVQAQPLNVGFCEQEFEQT
# This is one part of the list.
# Experiments:
# Test in all cases: log2 fold change, soluble protein after heating vs DMSO (PISA); higher = thermal stabilisation; K562 cells, 10 uM, 30 min; active = over 0.2 and 3.5 SD of the protein, either way, in both replicates (recomputed)
# [1] = compound: NC(=O)Nc1cc(-c2cccc(F)c2)sc1C(=O)N[C@H]1CCCNC1
# Procedure, shortened: (§1)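 Aliquots of K562 cells (2×10^6 cells/mL) treated with 10 μM compound for 30 min were heated for 3 min over 48°C-58°C. After pooling and extraction in PBS with 0.5% NP-40 at 4°C, soluble protein from a 21,000xg, 90 min spin was quantified by TMTpro 16plex LC-MS/MS with channel sums equalised. Thermal stability is expressed against control samples, from duplicates, as a log2 fold change.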
# [2] = compound: NC(=O)c1cnc(N[C@@H]2CCCC[C@@H]2N)nc1Nc1cccc(-n2nccn2)c1
# Procedure, shortened: as §1
# [3] = compound: NC1(c2ccc(-c3nc4ccn5c(=O)[nH]nc5c4cc3-c3ccccc3)cc2)CCC1
# Procedure, shortened: as §1
# [4] = compound: NCC(=O)Nc1ccc(-n2nc(C(F)(F)F)cc2-c2ccc3c(ccc4ccccc43)c2)cc1
# Procedure, shortened: as §1
# [5] = compound: Nc1ccccc1NC(=O)c1ccc(CNC(=O)OCc2cccnc2)cc1 [entinostat]
# Procedure, shortened: as §1
# [6] = compound: O=C(CCCCCCC(=O)Nc1ccccc1)NO [vorinostat]
# Procedure, shortened: as §1
# [7] = compound: O=C(CCCCCCNC(=O)c1cnc(N(c2ccccc2)c2ccccc2Cl)nc1)NO [citarinostat]
# Procedure, shortened: as §1
# [8] = compound: O=C(O)c1ccc2c(c1)nc(Nc1cccc(Cl)c1)c1ccncc12 [silmitasertib]
# Procedure, shortened: as §1
# [9] = compound: O=C1NC(=O)C(c2cnc3ccccn23)=C1c1cn2c3c(cc(F)cc13)CN(C(=O)N1CCCCC1)CC2
# Procedure, shortened: as §1
# [10] = compound: c1cc(OCCN2CCCCC2)cc(-c2n[nH]c3ccc(-c4nnc[nH]4)cc23)c1
# Procedure, shortened: as §1
Target,log2 fold change [1],log2 fold change [2],log2 fold change [3],log2 fold change [4],log2 fold change [5],log2 fold change [6],log2 fold change [7],log2 fold change [8],log2 fold change [9],log2 fold change [10]
GYPA (UniProt P02724),inactive: 0.219,inactive: 0.098,inactive: 0.268,inactive: 0.294,inactive: 0.133,inactive: -0.021,inactive: 0.038,inactive: -0.077,inactive: -0.031,inactive: 0.114
HAUS1 (UniProt Q96CS2),inactive: 0.086,inactive: -0.088,inactive: -0.001,inactive: -0.01,inactive: 0.104,inactive: 0.062,inactive: 0.041,inactive: 0.123,inactive: 0.075,inactive: -0.026
GSPT1 isoform 3 (UniProt P15170),inactive: -0.034,inactive: -0.078,inactive: -0.052,inactive: -0.068,inactive: -0.014,inactive: -0.006,inactive: -0.012,inactive: -0.024,inactive: -0.083,inactive: -0.013
HERC4 (UniProt Q5GLZ8),inactive: 0.002,inactive: -0.025,inactive: -0.136,inactive: -0.061,inactive: 0.018,inactive: 0.049,inactive: 0.034,inactive: -0.001,inactive: -0.074,inactive: -0.049
HDAC3 isoform 2 (UniProt O15379),inactive: 0.026,inactive: 0.019,inactive: -0.037,inactive: -0.009,,inactive: -0.026,inactive: 0.079,inactive: -0.031,inactive: -0.006,inactive: -0.093
HAL (UniProt P42357),inactive: 0.132,inactive: 0.32,inactive: 0.204,inactive: 0.059,inactive: 0.283,,inactive: -0.446,inactive: -0.087,inactive: -0.136,inactive: 1.42
HDAC7 isoform 5 (UniProt Q8WUI4),inactive: 0.009,inactive: 0.123,inactive: 0.188,inactive: -0.036,,inactive: 0.027,inactive: 0.032,inactive: 0.021,inactive: 0.032,inactive: -0.163
HAUS5 (UniProt O94927),inactive: -0.227,inactive: -0.009,inactive: 0.317,,inactive: -0.221,inactive: 0.015,inactive: -0.105,inactive: 0.235,,inactive: -0.212
HECTD3 (UniProt Q5T447),inactive: -0.064,inactive: -0.015,inactive: -0.066,inactive: -0.014,inactive: 0.024,,inactive: -0.025,inactive: 0.03,inactive: 0.087,inactive: -0.054
GTF3C5 isoform 3 (UniProt Q9Y5Q8),inactive: -0.028,inactive: 0.211,inactive: -0.054,inactive: -0.051,inactive: 0.046,inactive: 0.072,inactive: -0.074,inactive: -0.034,inactive: 0.042,inactive: 0.013
HAGHL isoform 2 (UniProt Q6PII5),inactive: 0.082,inactive: -0.16,inactive: 0.085,inactive: 0.075,inactive: 0.026,,,inactive: 0.098,inactive: 0.163,
HDAC2 (UniProt Q92769),inactive: -0.01,inactive: -0.037,inactive: -0.013,inactive: -0.039,,,active: 1.04,inactive: 0.04,inactive: -0.021,inactive: -0.041
GSTM5 (UniProt P46439),inactive: 0.257,inactive: -0.034,inactive: 0.124,inactive: -0.008,inactive: 0.152,inactive: -0.06,,inactive: 0.1,inactive: 0.123,
GSR (UniProt P00390),inactive: 0.008,inactive: -0.046,inactive: 0,inactive: -0.03,inactive: -0.011,inactive: 0.019,inactive: 0.028,inactive: -0.027,inactive: -0.023,inactive: 0.018
HDAC1 (UniProt Q13547),inactive: -0.015,inactive: 0.128,inactive: -0.017,inactive: 0.006,,active: 1.79,active: 1.52,inactive: 0.06,inactive: -0.03,inactive: 0.003
GTPBP6 (UniProt O43824),inactive: -0.052,inactive: -0.066,inactive: 0.017,inactive: -0.003,inactive: -0.019,inactive: -0.1,inactive: 0.093,inactive: -0.115,inactive: 0.086,inactive: -0.011

Target,log2 fold change [1],log2 fold change [2],log2 fold change [3],log2 fold change [4],log2 fold change [5],log2 fold change [6],log2 fold change [7],log2 fold change [8],log2 fold change [9],log2 fold change [10]
HELQ (UniProt Q8TDG4),inactive: -0.199,inactive: 0.052,inactive: -0.062,inactive: -0.091,inactive: 0.152,inactive: 0.047,inactive: 0.037,inactive: -0.128,inactive: 0.052,inactive: -0.07
HEATR1 (UniProt Q9H583),inactive: 0.012,inactive: -0.105,inactive: 0.154,inactive: 0.143,inactive: -0.042,inactive: 0.057,,inactive: 0.005,inactive: 0.036,
HACD3 (UniProt Q9P035),inactive: 0.037,inactive: -0.07,inactive: -0.079,inactive: -0.04,inactive: 0.008,inactive: -0.018,inactive: 0.064,inactive: -0.023,inactive: -0.021,inactive: -0.07
HEBP2 (UniProt Q9Y5Z4),inactive: -0.002,inactive: 0.008,inactive: -0.051,inactive: 0.009,inactive: -0.016,inactive: -0.018,inactive: 0.024,inactive: -0.02,inactive: -0.005,inactive: 0.011
HEXA (UniProt P06865),inactive: -0.025,inactive: -0.06,inactive: -0.156,inactive: 0.006,inactive: -0.028,inactive: -0.02,inactive: 0.056,inactive: -0.013,inactive: -0.037,inactive: -0.022
GTF3C1 (UniProt Q12789),inactive: -0.207,inactive: -0.087,inactive: -0.226,inactive: -0.342,inactive: 0.029,inactive: -0.029,inactive: -0.078,inactive: 0.106,inactive: -0.073,inactive: 0
GTPBP4 (UniProt Q9BZE4),inactive: -0.057,inactive: 0.09,inactive: 0.294,inactive: -0.129,inactive: -0.063,inactive: 0.092,inactive: 0.039,inactive: 0.091,inactive: 0,inactive: -0.237
HERC2 (UniProt O95714),inactive: 0.014,inactive: -0.114,inactive: -0.188,inactive: 0.008,inactive: -0.063,inactive: -0.166,inactive: 0.053,inactive: 0.011,inactive: 0.201,inactive: -0.096
HADH isoform 2 (UniProt Q16836),inactive: -0.031,inactive: -0.024,inactive: -0.024,inactive: -0.026,inactive: -0.013,inactive: -0.008,inactive: -0.004,inactive: -0.043,inactive: -0.026,inactive: 0.016
HDHD2 (UniProt Q9H0R4),inactive: 0.091,inactive: -0.016,inactive: -0.023,inactive: 0.048,inactive: -0.01,inactive: -0.018,inactive: 0.033,inactive: -0.007,inactive: 0.131,inactive: -0.012
GSTP1 (UniProt P09211),inactive: -0.044,inactive: -0.01,inactive: -0.056,inactive: 0.001,inactive: -0.006,inactive: -0.012,inactive: 0.034,inactive: -0.038,inactive: -0.005,inactive: -0.013
HCCS (UniProt P53701),inactive: -0.039,inactive: -0.082,inactive: -0.02,inactive: -0.029,inactive: -0.038,inactive: -0.014,inactive: -0.016,inactive: 0.042,inactive: -0.021,inactive: -0.058
"HBZ, A0A494C057",,,inactive: -0.022,,,,inactive: -0.197,inactive: 0.005,,inactive: 0.876
H2AFY (UniProt O75367),,,inactive: 0.147,,,inactive: 0.174,inactive: 0.067,inactive: 0.042,inactive: 0.165,inactive: 0.01
HAUS6 (UniProt Q7Z4H7),inactive: 0.099,inactive: -0.542,inactive: -0.116,,inactive: 0.087,,inactive: 0.143,inactive: 0.116,inactive: 0.297,inactive: -0.196
GSKIP (UniProt Q9P0R6),,inactive: 0.079,inactive: -0.037,inactive: 0.205,,inactive: -0.1,inactive: -0.038,inactive: 0.061,,inactive: -0.006

# Reprinted at random: 2 records from the list.
Target,log2 fold change [1],log2 fold change [2],log2 fold change [3],log2 fold change [4],log2 fold change [5],log2 fold change [6],log2 fold change [7],log2 fold change [8],log2 fold change [9],log2 fold change [10]
GTPBP4 (UniProt Q9BZE4),inactive: -0.057,inactive: 0.09,inactive: 0.294,inactive: -0.129,inactive: -0.063,inactive: 0.092,inactive: 0.039,inactive: 0.091,inactive: 0,inactive: -0.237
HAUS1 (UniProt Q96CS2),inactive: 0.086,inactive: -0.088,inactive: -0.001,inactive: -0.01,inactive: 0.104,inactive: 0.062,inactive: 0.041,inactive: 0.123,inactive: 0.075,inactive: -0.026
